No constants are given. Whether binding was seen depends on the method and setting. In cells and extracts the contact can be indirect. Some binding calls cover weakened binding; strength is not graded here.
Columns and labels:
Test in all cases: co-IP
[1] = molecular target: T1, TRAK2-mScarlet E242R (human) (UniProt O60296)
T1 sequence: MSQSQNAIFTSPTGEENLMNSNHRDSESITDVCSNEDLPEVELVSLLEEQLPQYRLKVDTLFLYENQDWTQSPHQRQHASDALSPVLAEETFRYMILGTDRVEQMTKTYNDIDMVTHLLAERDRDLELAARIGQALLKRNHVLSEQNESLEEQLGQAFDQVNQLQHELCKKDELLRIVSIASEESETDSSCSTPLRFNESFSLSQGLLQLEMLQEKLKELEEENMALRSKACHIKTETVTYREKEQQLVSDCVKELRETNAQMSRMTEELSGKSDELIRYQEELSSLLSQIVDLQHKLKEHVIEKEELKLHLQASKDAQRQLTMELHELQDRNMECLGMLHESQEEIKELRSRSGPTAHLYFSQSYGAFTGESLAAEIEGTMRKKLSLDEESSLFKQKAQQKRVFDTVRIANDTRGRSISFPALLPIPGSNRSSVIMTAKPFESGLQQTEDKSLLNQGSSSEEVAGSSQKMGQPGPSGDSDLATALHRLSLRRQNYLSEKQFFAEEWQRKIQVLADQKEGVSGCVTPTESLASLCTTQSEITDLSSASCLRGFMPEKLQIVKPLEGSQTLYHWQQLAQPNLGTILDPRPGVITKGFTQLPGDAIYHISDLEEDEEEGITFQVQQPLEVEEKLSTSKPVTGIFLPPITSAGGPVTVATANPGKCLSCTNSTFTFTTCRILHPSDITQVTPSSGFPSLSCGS

[2] = molecular target: T2, TRAK2-mScarlet with alanine substitutions of F92 and M95 (DRH mutant) (human) (UniProt O60296)
T2 sequence: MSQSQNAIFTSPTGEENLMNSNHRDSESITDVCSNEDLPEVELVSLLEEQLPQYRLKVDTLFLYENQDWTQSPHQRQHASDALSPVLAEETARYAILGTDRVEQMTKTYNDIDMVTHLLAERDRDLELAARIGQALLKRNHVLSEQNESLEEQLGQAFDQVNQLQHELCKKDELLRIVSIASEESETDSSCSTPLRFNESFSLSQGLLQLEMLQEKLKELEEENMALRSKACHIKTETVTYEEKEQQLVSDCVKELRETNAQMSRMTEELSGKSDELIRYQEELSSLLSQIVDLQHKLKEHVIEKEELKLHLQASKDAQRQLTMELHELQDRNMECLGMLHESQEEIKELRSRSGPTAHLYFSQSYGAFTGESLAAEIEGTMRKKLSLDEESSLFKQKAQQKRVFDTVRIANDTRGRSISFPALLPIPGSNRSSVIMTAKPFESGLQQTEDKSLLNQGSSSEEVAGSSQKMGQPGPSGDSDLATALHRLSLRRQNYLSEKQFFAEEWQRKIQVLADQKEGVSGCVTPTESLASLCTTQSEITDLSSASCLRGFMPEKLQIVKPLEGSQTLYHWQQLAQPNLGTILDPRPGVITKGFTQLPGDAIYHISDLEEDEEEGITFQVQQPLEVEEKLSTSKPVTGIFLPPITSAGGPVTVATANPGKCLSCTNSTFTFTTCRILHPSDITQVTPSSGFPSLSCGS

[3] = molecular target: T3, TRAK2-mScarlet (wild type, truncated before the mitochondrial binding domain) (human) (UniProt O60296)
T3 sequence: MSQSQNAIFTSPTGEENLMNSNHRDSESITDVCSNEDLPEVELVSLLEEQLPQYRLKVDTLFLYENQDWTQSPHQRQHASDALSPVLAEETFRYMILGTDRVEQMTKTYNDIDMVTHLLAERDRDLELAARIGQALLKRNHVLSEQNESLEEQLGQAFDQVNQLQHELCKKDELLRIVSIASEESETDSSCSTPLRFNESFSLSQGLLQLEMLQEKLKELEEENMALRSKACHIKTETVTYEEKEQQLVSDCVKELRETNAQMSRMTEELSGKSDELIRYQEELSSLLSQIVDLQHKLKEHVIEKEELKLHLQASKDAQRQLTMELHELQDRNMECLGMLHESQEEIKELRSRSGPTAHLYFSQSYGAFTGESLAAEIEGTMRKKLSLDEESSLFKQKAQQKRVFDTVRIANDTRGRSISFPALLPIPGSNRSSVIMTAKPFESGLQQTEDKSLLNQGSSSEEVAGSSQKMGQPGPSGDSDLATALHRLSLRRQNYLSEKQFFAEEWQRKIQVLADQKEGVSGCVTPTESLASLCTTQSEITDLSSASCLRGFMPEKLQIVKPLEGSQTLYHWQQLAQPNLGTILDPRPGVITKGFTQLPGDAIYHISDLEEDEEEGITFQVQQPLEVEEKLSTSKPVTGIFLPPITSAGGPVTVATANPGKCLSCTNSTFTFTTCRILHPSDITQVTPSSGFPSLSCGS

Measured: binding

B1: kinesin-1 (KIF5B) (natural protein, human (endogenous in hTERT RPE-1), UniProt P33176 1-963, looked up)
chain: MADLAECNIKVMCRFRPLNESEVNRGDKYIAKFQGEDTVVIASKPYAFDRVFQSSTSQEQVYNDCAKKIVKDVLEGYNGTIFAYGQTSSGKTHTMEGKLHDPEGMGIIPRIVQDIFNYIYSMDENLEFHIKVSYFEIYLDKIRDLLDVSKTNLSVHEDKNRVPYVKGCTERFVCSPDEVMDTIDEGKSNRHVAVTNMNEHSSRSHSIFLINVKQENTQTEQKLSGKLYLVDLAGSEKVSKTGAEGAVLDEAKNINKSLSALGNVISALAEGSTYVPYRDSKMTRILQDSLGGNCRTTIVICCSPSSYNESETKSTLLFGQRAKTIKNTVCVNVELTAEQWKKKYEKEKEKNKILRNTIQWLENELNRWRNGETVPIDEQFDKEKANLEAFTVDKDITLTNDKPATAIGVIGNFTDAERRKCEEEIAKLYKQLDDKDEEINQQSQLVEKLKTQMLDQEELLASTRRDQDNMQAELNRLQAENDASKEEVKEVLQALEELAVNYDQKSQEVEDKTKEYELLSDELNQKSATLASIDAELQKLKEMTNHQKKRAAEMMASLLKDLAEIGIAVGNNDVKQPEGTGMIDEEFTVARLYISKMKSEVKTMVKRCKQLESTQTESNKKMEENEKELAACQLRISQHEAKIKSLTEYLQNVEQKKRQLEESVDALSEELVQLRAQEKVHEMEKEHLNKVQTANEVKQAVEQQIQSHRETHQKQISSLRDEVEAKAKLITDLQDQNQKMMLEQERLRVEHEKLKATDQEKSRKLHELTVMQDRREQARQDLKGLEETVAKELQTLHNLRKLFVQDLATRVKKSAEIDSDDTGGSAAQKQKISFLENNLEQLTKVHKQLVRDNADLRCELPKLEKRLRATAERVKALESALKEAKENASRDRKRYQQEVDRIKEAVRSKNMARRGHSAQIAKPIRPGQHPAASPTHPSAIRGGGAFVQNSQPVAVRGGGGKQV
binds weakly: all assays above
